Data from paper PMC13289029.

B1: GuaB (protein, UniProt Q8DRR2 1-493)
chain: MSNWDTKFLKKGYTFDDVLLIPAESHVLPNEVSMQTKLAKNLTLNIPIITAAMDTVTDSKMAIAIARAGGLGVVHKNMSIKEQAEEVRKVKRSENGVIIDPFFLTPEHKVSEAEELMQRYRISGVPVVETLDNRKLIGIITNRDMRFISDYETPISEHMTSEKLVTAPVGTDLETAERILHEHRIEKLPLIDEKGRLSGLITIKDIEKVIEFPNAAKDEFGRLLVAGAVGVTSDTFERAEALFEAGADAIVIDTAHGHSAGVLRKIAEIRAHFPDRTLIAGNIATAEGARALYEAGVDVVKVGIGPGSICTTRVVAGVGVPQITAIYDAASIAREYGRTIIADGGIKYSGDIVKALAAGGNAVMLGSMFAGTDEAPGETEIFQGRKFKTYRGMGSIAAMKKGSSDRYFQGSVNEANKLVPEGIEGRVAYKGAAADIVFQMLGGIRSGMGYVGAANLKELHENAQFIEMSGAGLIESHPHDVQITNEAPNYSVQ
B2: Ftf (protein, UniProt P11701 37-795)
chain: DEANSTQVSSELAERSQVQENTTASSSAAENQDKTEVKETPSTNPAAATVENTDQTTKVITDNAAVESKASKTKDQAATVTKTSASTPEVGQTNEKAKATKEADITTPKNTIDEYGLTEQARKIATEAGINLSSLTQKQVEALNKVKLTSDAQTGHQMTYQEFDKIAQTLIAQDERYAIPYFNAKAIKNMKAATTRDAQTGQIADLDVWDSWPVQDAKTGEVINWNGYQLVVAMMGIPNTNDNHIYLLYNKYGDNNFDHWKNAGSIFGYNETPLTQEWSGSATVNEDGSLQLFYTKVDTSDKNSNNQRLATATVNLGFDDQDVRILSVENDKVLTPEGGDGYHYQSYQQWRSTFTGADNIAMRDPHVIEDENGDRYLVFEASTGTENYQGEDQIYNFTNYGGSSAYNVKSLFRFLDDQDMYNRASWANAAIGILKLKGDKKTPEVDQFYTPLLSSTMVSDELERPNVVKLGDKYYLFTASRLNHGSNNDAWNKANEVVGDNVVMLGYVSDQLTNGYKPLNNSGVVLTASVPADWRTATYSYYAVPVAGSSDTLLMTAYMTNRNEVAGKGKNSTWAPSFLIQVLPDGTTKVLAEMTQQGDWIWDESSRTTDTVGTLDTAYLPGENDGYIDWNVIGGYGLKPHTPGQYQPTVPSTPIHTDDIISFEVSFDGHLVIKPVKVNNDSAGRIDQSRNSGGSLNVAFNVYAGGNISVKPSQKSINNTKETKKAHHVSTEKKQKKGNSFFAALLALFSAFCVSIGFK
B3: LivF (protein, UniProt Q8DSU4 1-236)
chain: MAMLKVENLSVHYGVIQAVKDVSFDVNEGEVVSLIGANGAGKTSILRTISGLVRPSSGEINFLGNDIQKAATRKIVASGLSQVPEGRHVFPGLTVLENLEMGAFLSNNREENLARLKRVFERFPRLEERKNQDAATLSGGEQQMLAMGRALMSQPKLLLLDEPSMGLAPIFIQEIFDIIQDIQKQGTTVLLIEQNAKKALSIADRGYVLETGKIVLSGTGKELLASDEVQKAYLGG
B4: FtsZ (protein, UniProt Q8DVD9 1-434)
chain: MAFSFDAASVQGAVIKVIGVGGGGGNAINRMIDEGVAGVEFIAANTDIQALSSSKAETVIQLGPKLTRGLGAGGQPEIGRKAAEESEEALTEALTGADMVFITAGMGGGSGTGAAPVIARIAKGLGSLTVAVVTRPFGFEGSKRGNYAIEGINELRDEVDTLLIISNNNLLEIVDKKTPLLEALSEADNVLRQGVQGITDLITSPGLINLDFADVKTVMASKGNALMGIGIGTGEERVVEAARKAIYSPLLETTIDGAEDVIVNVTGGLDMTLTEAEEASEIVNQAAGHGVNIWLGTSIDDSMKDEIRVTVVATGVRPDKADQVSGIRRQASSYTQPRAQQQAPSSNSAQPNFERRQNFDFDLNESPEMPAAEPQQTQSSSEPQQSAFGDWNLRRENIARPTEGEIDSQLKMSSFSADSDDDDELETPPFFKNR
B5: GapC (protein, UniProt Q8DVV3 1-337)
chain: MVVKVGINGFGRIGRLAFRRIQNVEGVEVTRINDLTDPNMLAHLLKYDSTQGRFDGNVEVKEGGFEVNGKFVKVSAERDPEQIDWAADGVEIVLEATGFFASKAAAEKHLHANGGAKKVVITAPGGNDIKTIVFNTNHDVLDGTETVISGASCTTNCLAPMAKALHDNFSIKEGLMTTIHAYTGDQMVLDGPHRKGDLRRARAAAANIVPNSTGAAKAIGLVIPELNGKLDGAAQRVPVPTGSVTELVAVLDKKVTVDEVNAAMKAAANESYGYTEDPIVSSDIVGMSFGSLFDATQTKVLDVDGKQLVKVVSWYDNEMSYTSQLVRTLEYFAKIAK
B6: LivG (protein, UniProt Q8DSU3 1-254)
chain: MALLDVKNLTKNFGGLTAVGDVTLELNEGELVGLIGPNGAGKTTLFNLLTGVYEPSEGSVELDGTLLNGKTPYKIASLGLSRTFQNIRLFKNMTVIENVLVGMENTRNPHLFSSFLRLPSFYSNETDLQEKAIELLKIFNLDDKADTLAKNLPYGQQRRLEIVRALATKPKILFLDEPAAGMNPQETAELTELIRQIKEEFSITIMLIEHDMSLVMDVTERIYVLEYGRLIAQGTPEEIKHNKRVIEAYLGGEA
B7: GlmM (protein, UniProt Q8DTC6 1-449)
chain: MGKYFGTDGVRGEANVELTPELAFKLGRFGGYVLSQHEPDRPRVFVARDTRISGELLESALVAGLLSVGIEVYKLGVLATPGVSYLVRTEQASAGVMISASHNPALDNGIKFFGGDGFKLADEQEAEIEALLDAKEDDLPRPSAQGLGMVVDYPEGLRKYEKFLVSTGSDLEGMKIAIDAANGAASYSARQVFLDLNADITVIGEEPDGLNINDGVGSTHPEQLQNLVKGSDFVIGLAFDGDSDRLIAVDENGEIVDGDKIMYIIGKYLSEKGRLSKNTIVTTVMSNLGFHKALDRENINKKITAVGDRYVVEEMRRSGYNLGGEQSGHVIIMDYNTTGDGQLTAIQLTKVMKETGKTLSELANEVTIYPQKLVNIYVKNDMKNKAMEVPMIAQIIEKMEAEMAGNGRILVRPSGTEPLLRVMAEAPSTEEVNYYVDTIAKVVKTEIGI
B8: KhpB (protein, UniProt Q8DVX2 1-322)
chain: MVLFTGKTVEEAIESGLKQMGISRMKAHIRVISREKKGFLGFGRKLARVEIEGINEKTAHKADQKAVRGVPDSINKQNAPVSSSAEDTVALNHLSKTIKKLEKEDGQPLDKEIKEQVLEHKISAQEMLEQNALTTKTSAATASSEAFNQKGKQTFEDFVADAFDEVDNGADIAVASKEVSQYIQKIIYEMDLETSIETSHNRRQINLQIETPEAGRVIGYHGKVLKSLQLLAQNFLHDHYSKHFSVTLNVHDYMEHRTKILIDFAHKIAKRVLDSGKAYQMDPMSNSERKVIHKTITGIEGVESYSEGNDPNRYVVIASKGN
B9: FtsA (protein, UniProt Q8DVE0 1-453)
chain: MARDGFFTGLDIGTSSIKVLVAEFINGSMNVIGVSNVKSSGVKDGIIIDIDTAAEAIKSAIKEAEEKAGMSISKVNVGLPANLLQIEPTQGMIPVPSESKEIKDEDVDSVVRSALTKSITPEREVISLIPEEFIVDGFQGIRDPRGMMGIRLEMRGLIYTGPSTILHNLRKTVERAGIEVENIIISPLALTKSVLNEGEREFGATVIDMGGGQTTVASMRAQELQFTNTYAEGGDYVTKDISKVLKTSHQVAEALKFNFGEANVAEASSTETVQVEVVGERNPVEITERYLSEIISARVRHLLDRIKQDLERGRLLDLPGGIVIVGGAAIMPGVVEIAQEIFGFNVKLHVPNQVGIRNPMFANIISIVEYVGTLTEVDILAQGAVSGDEKLRRKPIDIKPSGVAPKTRSFAQPQESTTLESQLEQLPPQQKEANEPKQKVGDRLRGIFGSMFD
B10: DivIVA (protein, UniProt Q8DVD4 1-271)
chain: MAITALEIKDKTFGTKMFGYNTQEVEEFLDIVVDDYEELVRTNREKDNRIKELEDKLGYFDEMKESLSQSVILAQETAEKVKLSANTESTNILNKATYESQQLVDAAKSKANQILRDATDEAKRIAVETEELKRQSRVFHQHLLSVVEGQLTLANSPEWTELLQPTAVYLQNSDAAFKEVVEQVLGEHVPDAADTEPIEVTRQFTPEEMEELHRRVSESNKELEETKAGQSTVDDQQPLIIEAADETKVNESADEQPNLNETQTFKLNINE

What follows are binders tested against DacA-FLAG (Streptococcus mutans UA159) (assay: affinity purification with mass spectrometry; anti-FLAG M2 affinity gel on lysate of the DacA-FLAG strain, FLAG peptide elution; whether these hits came from the non-crosslinked or the crosslinked samples is not given).
In the case of B1, the binding is reported as “binds”. For B2, the binding was “binds”. B3 was tested, and the binding was “binds”. For B4, the binding was “binds”. With B5 the binding was “binds”. For B6, the binding was “binds”.

Each binder was assayed against DacA-FLAG (Streptococcus mutans UA159) (assay: affinity purification with mass spectrometry; crosslinked; cells in PBS with 1% formaldehyde 20 min at room temperature, quenched with 0.125 M glycine, then lysate on anti-FLAG M2 affinity gel 3 h at 4°C, FLAG peptide elution; UA159 as no-FLAG control; hits at least twofold enriched with spectral counts >10).
In the case of B7, the binding is reported as “binds”. In the case of B8, the binding is reported as “binds”. B9 was tested, and the binding was “binds”. B10 was tested, and the binding was “binds”.

Results are given in words; binding and its absence hold for the method and conditions named. In cells and extracts the contact can be indirect. Here binding means that the protein was enriched with, or labelled near, the bait; the list need not be complete.
